This is an account of results in PMC7819943, “Rice protein-binding microarrays: a tool to detect cis-acting elements near promoter regions in rice”.

By UniProt entry, the sequences of proteins in these tests, tags left out.
UniProt Q0JBA9, entry or part of it: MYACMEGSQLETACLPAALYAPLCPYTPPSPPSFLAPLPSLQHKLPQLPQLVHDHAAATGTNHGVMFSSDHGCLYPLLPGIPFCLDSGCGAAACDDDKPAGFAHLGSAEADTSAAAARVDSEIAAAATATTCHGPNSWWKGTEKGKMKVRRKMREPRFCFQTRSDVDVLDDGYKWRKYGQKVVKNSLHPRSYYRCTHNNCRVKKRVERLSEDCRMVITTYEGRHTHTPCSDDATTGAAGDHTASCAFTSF

The other results are listed elsewhere or left out.

In this assay the target is OsWRKY34 (Oryza sativa, UniProt Q0JBA9 1-250). The assay is described as follows: protein-binding microarray (RPBM); PBS, 2% BSA, 51.3 ng/ul salmon testes DNA, 50 uM zinc acetate, 200 nM TF, 25 C, 1 h; high values mean tight binding. The conditions noted are these: protein: recombinant; tags: N-terminal polyhistidine and DsRed monomer fusion (pET32a); label: CyDye5-dUTP incorporated in the synthesized complementary strand; 3' TTTTT single-stranded linker to array surface; dsDNA, one strand shown. In a few lines:
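For the binding signal, per-feature fluorescence intensity was read in arbitrary units on an Axon 4000B scanner. Before scanning, a 2% BSA-blocked custom Agilent array made double-stranded with Cy5-dUTP was washed after 1 h at 25 °C with 200 nM protein and 50 µM zinc acetate. The proteins were Ni–NTA-purified transcription factors with N-terminal polyhistidine and DsRed fusions, expressed in E. coli BL21-CodonPlus.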
Regarding “ATATTTGACCGTTTGTCTTTTTCAAAAACTTTTGTGAAATCGGAGTCACCTAGTGCAG”, the binding signal was 9920 fluorescence intensity (a.u.). With “TCATGTGGACCATCCATTCTTCTCCCCTTTTCTTCACATTCGGAGTCACCTAGTGCAG” the figure was 9230 fluorescence intensity (a.u.). Turning to “CCAATTTTCAAATTTATTCTCCGTTTTGCTCTCAAATTTGCGGAGTCACCTAGTGCAG”, the binding signal was 8370 fluorescence intensity (a.u.). In the case of “CCCCGCCCGGCTCAGACCTCGCCATCGATCGACCTGCTCGCGGAGTCACCTAGTGCAG” it was 10100 fluorescence intensity (a.u.).

For the sequence “TACCACTCATGCTTTCTCTTAGCCTTCATATACTTGTCAACGGAGTCACCTAGTGCAG”, the binding signal was 13000 fluorescence intensity (a.u.). As for “CTCATCATATTTGGACCTGCACTGGAGCTAAGCAGATCTCCGGAGTCACCTAGTGCAG”, the binding signal was 9540 fluorescence intensity (a.u.). On to “ATAGGCGAATCCACACCGTCCATTCATCCATCTGAAGCAGCGGAGTCACCTAGTGCAG”, for which the binding signal is 9870 fluorescence intensity (a.u.). For the sequence “ACCTCTAACCGCCACTAGTTTTTTATACTCTTCTCTATAGCGGAGTCACCTAGTGCAG”, the binding signal was 8470 fluorescence intensity (a.u.). Consider “TGCTCAATTGCAGAATTGCTCATAATCTCTCTCTTTTTTTCGGAGTCACCTAGTGCAG”, for which the binding signal was 9140 fluorescence intensity (a.u.).

On to “CCCTTGTTTGGTTTCACATCGAATTCCCTCCAAGTCTCACCGGAGTCACCTAGTGCAG”, for which the binding signal is 9580 fluorescence intensity (a.u.). As for “GTTCATTCAGTTTATGCCACTGCACTTCCTATGTCTCATCCGGAGTCACCTAGTGCAG”, the binding signal is 12000 fluorescence intensity (a.u.). As for “ACCCTAGGTTTCCATGTCCAACGTTTGACCGTCCGTCTTACGGAGTCACCTAGTGCAG”, the binding signal is 10400 fluorescence intensity (a.u.). For “CACCTGTAAAACGCCACCTCTTCACCGCTGCCACCACACCCGGAGTCACCTAGTGCAG”, the binding signal is 9310 fluorescence intensity (a.u.). For “GTTTTTGCTGAAATCAACCTAACCGATATTTAGCGTTACCCGGAGTCACCTAGTGCAG”, the binding signal is 8150 fluorescence intensity (a.u.). Regarding “GCGAGCCAAGTAGCAGCAAATCCTCGTCCACTCATCCAGTCGGAGTCACCTAGTGCAG”, the binding signal was 8300 fluorescence intensity (a.u.).

“GCCATCAACACGGCCCACCCAGAAACGGCCGCATCAATCCCGGAGTCACCTAGTGCAG”: the binding signal is 10100 fluorescence intensity (a.u.).

Regarding “CCTTTTTATTTTATTTTTTTTCTATTTTTTTTCCGCAGCCCGGAGTCACCTAGTGCAG”, the binding signal is 9000 fluorescence intensity (a.u.). As for “TAACGACCGTCAACATCTATCGAATTGTCGTTTGTATACTCGGAGTCACCTAGTGCAG”, the binding signal is 9510 fluorescence intensity (a.u.). Regarding “CCTCATCACCACCACCACGCCAACATCCATCGGCTCGCCGCGGAGTCACCTAGTGCAG”, the binding signal was 8800 fluorescence intensity (a.u.). In the case of “CTTCCACGCACTCTCTCGATCGGGTCGCTGCCGCTGATTTCGGAGTCACCTAGTGCAG” it was 10000 fluorescence intensity (a.u.); in that of “CTTTCCCTATCTTTCTCCTCATCATATGTGTCATGATGCACGGAGTCACCTAGTGCAG”, 8610 fluorescence intensity (a.u.); in that of “GAAAACTACACAGTACTACGCGTTTCTTGTTCACACTTGCCGGAGTCACCTAGTGCAG”, 10100 fluorescence intensity (a.u.). For the sequence “ATTGCAACTGTCGGTCAACTGCTCCATTGATCGATCTCTCCGGAGTCACCTAGTGCAG”, the binding signal was 9630 fluorescence intensity (a.u.). Regarding “AGAACACCATACACGTCCGGCTTCTCATGCGTCCACCGCTCGGAGTCACCTAGTGCAG”, the binding signal is 8920 fluorescence intensity (a.u.). As to “CCACTGTCCAGAGGTCACTGATGTTGGTCTAGGCCACCTTCGGAGTCACCTAGTGCAG”, the binding signal is 8540 fluorescence intensity (a.u.). With “GGAAGAGATGGGAATTTTGGTGGGATAGGAATGGGGAATTCGGAGTCACCTAGTGCAG”, the binding signal is 8350 fluorescence intensity (a.u.). In the case of “CCGCCATCCCCACCACGGGATCCACCATCGCCGAGGCCCCCGGAGTCACCTAGTGCAG”, the binding signal was 8080 fluorescence intensity (a.u.). Turning to “CCTCTTTTCTTTTTTCTTTTCAACCAAGGGTTTAACTTTCCGGAGTCACCTAGTGCAG”, the binding signal was 12500 fluorescence intensity (a.u.). As for “AAATAAACGGTCAAATATATTTAAAAAAAAGTCAACGATGCGGAGTCACCTAGTGCAG”, the binding signal is 12000 fluorescence intensity (a.u.). As for “TTACCTAGGCTGAGTTTTTTTTCCCAACTTTCCTAACTCACGGAGTCACCTAGTGCAG”, the binding signal is 8980 fluorescence intensity (a.u.). As for “GTAGTACGTGTGTAATTACAAGATGCCCAGTAAAATTATTCGGAGTCACCTAGTGCAG”, the binding signal was 8060 fluorescence intensity (a.u.). Regarding “GTGACCCGCCCCGCCCATAACGGCACACTCTCCGTACTCTCGGAGTCACCTAGTGCAG”, the binding signal is 9780 fluorescence intensity (a.u.). With “GTTGTCGGTGTGTGGGTGGTGATATATTTTTTTAACTGGTCGGAGTCACCTAGTGCAG”, the binding signal was 9020 fluorescence intensity (a.u.).

As to “GGTGTGTGCTGGCTATTTGTCAAAGATTATGTGGGTTTTTCGGAGTCACCTAGTGCAG”, the binding signal is 10400 fluorescence intensity (a.u.). For the sequence “TCCTCGCCGCCGCCAACAAAGTCTGTACCGTCCCCGCGCCCGGAGTCACCTAGTGCAG”, the binding signal was 9460 fluorescence intensity (a.u.).

“ATGTTTCTTGCGCGTGGGATCGAGCCAATCAAGTTGTTTTCGGAGTCACCTAGTGCAG”: the binding signal is 9280 fluorescence intensity (a.u.).

Turning to “TTGGGTATAGGTTTTTTAGAAGTCATTTGCTTTTTTTATTCGGAGTCACCTAGTGCAG”, the binding signal is 10300 fluorescence intensity (a.u.).

Regarding “TACTACGTCACATTTTAGTCATGCTACATTTTCTCAGGCACGGAGTCACCTAGTGCAG”, the binding signal was 8910 fluorescence intensity (a.u.). In the case of “AAATTTTTGGGATCTAAACACACCCTAAATCAAATCCATGCGGAGTCACCTAGTGCAG”, the binding signal is 8180 fluorescence intensity (a.u.). “CAATCCACATCTTGATTTGTGCTGCGTGTTTCCCGTCTGTCGGAGTCACCTAGTGCAG”: the binding signal is 10200 fluorescence intensity (a.u.). With “CGGAGAGGGAGAAGGAGAGGAGAGGGGCTGATAGGTGGGGCGGAGTCACCTAGTGCAG”, the binding signal is 9920 fluorescence intensity (a.u.).

Turning to “TGCCTAATGTGTTGTCGCACGTATTCCTTGTTGCATGCCTCGGAGTCACCTAGTGCAG”, the binding signal is 9600 fluorescence intensity (a.u.).
